Experimental findings from patent publication WO2008121160A2 (dated 2008) are described below.

The target in one experiment is human CD5 (human). Description: flow cytometry, labeled antibody on human PBMCs (leukocytes of lysed blood).
For experiment [1], the target named is cynomolgus monkey CD5 (cynomolgus monkey). Description: flow cytometry, labeled antibody on cynomolgus monkey PBMCs (leukocytes of lysed blood). For orientation: In flow cytometry, cells or beads pass a laser one at a time.

These are yes or no findings as the source states them, for the method shown. Binding can be weak; no strength is given.

B1: murine anti-CD5 antibody 5D7 (antibody, V domains shown)
VH: QVTLKESGPGILKPSQTLSLTCSFSGFSLSTSGMGVGWIRQPSGKGLEWLAHIWWDDDVYYNPSLKNQLTISKDASRDQVFLKITNLDTADTATYYCVRRRATGTGFDYWGQGTTLTVSS
VL: NIVMTQSHKFMSTSVGDRVSIACKASQDVGTAVAWYQQKPGQSPKLLIYWTSTRHTGVPDRFTGSGSGTDFTLTITNVQSEDLADYFCHQYNSYNTFGSGTRLELK
B1: the binding entry (in the experiment with human CD5 (human); in experiment [1]) was “binds” in each case.
